Data: PubChem BioAssay AID540276 (National Center for Advancing Translational Sciences (NCATS), 2011)
The campaign covered roughly 300,000 compounds. About 5,400 (1.8%) were called active. This list was built around the results that the source calls inconclusive (neither active nor inactive); the mix of calls is not that of the screen. The call rests on the fitted dose curve; tested in HEK293 cells. A potency beside an inconclusive call is a rough fit, not a confirmed value.

assay: qHTS for inhibitors of binding or entry into cells for Marburg Virus; details: Marburg virus pseudotyped entry inhibition, cell reporter; series mostly up to 37.8 µM
Potency means the concentration at half of the fitted maximal effect.

SMILES	Potency
CC1CCCC(C)N1/N=C/c1cccc(Br)c1 (stereo unspecified)	inactive
CCOC(=O)C1=C(N)n2c(s/c(=C\c3ccncc3)c2=O)=C(C(=O)OCC)C1c1ccncc1 (stereo unspecified)	inconclusive: 0.891 µM [inhibitor, full curve, poor fit]
Cc1noc(C)c1C(=O)OCC(=O)NCCc1ccc(S(N)(=O)=O)cc1	inactive
Cc1ccc(N/N=C/c2cccnc2)cc1	inconclusive: 10.3 µM [activator, partial curve, poor fit]
COc1ccc(N2CCN(Cc3cc(=O)oc4cc(-c5ccccc5)c(O)cc34)CC2)cc1	inconclusive: 0.447 µM [inhibitor, full curve]
Cc1cc(NC(=O)NC(=O)c2ccccc2F)no1	inconclusive: 1.26 µM [activator, partial curve, poor fit]
COc1ccc(Nc2oc(COc3cccc(C)c3)nc2C#N)cc1	inconclusive: 35.5 µM [inhibitor, single point]
Cc1nc2c3cc(Cl)ccc3n(CCN3CCCCC3)c2s1	inconclusive: 29.1 µM [inhibitor, single point]
Cc1ccc(-c2noc(C3CCCN(C(=O)c4cccc(Cl)c4)C3)n2)o1 (stereo unspecified)	inconclusive: 35.5 µM [inhibitor, single point]
Cc1nnc(SCC(=O)NNC(=O)c2ccccc2)n1-c1ccccc1	inconclusive: 35.5 µM [activator, single point]
O=C(Nc1cccc(NC(=O)c2ccccc2Cl)c1)c1ccc([N+](=O)[O-])o1	inconclusive: 10 µM [inhibitor, partial curve, poor fit]
COc1ccccc1C(=O)COC(=O)Cn1[nH]c(=O)c2ccccc2c1=O	inconclusive: 0.178 µM [inhibitor, partial curve, poor fit]
Cc1ccc2sc(N(CCCN(C)C)C(=O)c3ccc(S(=O)(=O)N4CCc5ccccc5C4)cc3)nc2c1C	inconclusive: 35.5 µM [inhibitor, single point]
CN(Cc1ccccc1)C(=O)c1c[nH]c2ccc(S(=O)(=O)Nc3ccccc3F)cc2c1=O	inactive
COc1ccc(S(=O)(=O)NCc2ccco2)cc1N(C)S(=O)(=O)c1ccccc1	inactive
C=CCOCCN(C)C1=NS(=O)(=O)c2cc([N+](=O)[O-])ccc21	inconclusive: 8.91 µM [inhibitor, partial curve, poor fit]
CCOC(=O)c1cc2c(=O)n3ccccc3nc2n(CC2CCCO2)c1=NC(=O)c1ccc(OCC)cc1 (stereo unspecified)	inactive
COc1ccc2nc(NC3=NCCN3)sc2c1	inactive
COc1ccc(/C=N/n2cnnc2SCc2ccccc2)cc1	inactive
Cc1nn2c(NCCOCCO)c3c(nc2c1-c1ccccc1)CCC3	inactive
COc1ccc(C2Nc3ccccc3C(=O)N2c2ccc(C)cc2)cc1Cn1nc(C)c([N+](=O)[O-])c1C (stereo unspecified)	inconclusive: 29.1 µM [inhibitor, single point]
O=C(CC(=O)N/N=C/c1ccccc1O)NCc1cccnc1	inconclusive: 35.5 µM [inhibitor, single point]
COc1ccc(/C=C2/SC(=S)N(CCCC(=O)Nc3ccccc3C(=O)O)C2=O)cc1	active: 7.94 µM

SMILES	Potency
O=C(NCc1ccccc1)c1n[nH]nc1-c1ccccc1O	inconclusive: 3.26 µM [inhibitor, partial curve, poor fit]
Cc1cccc(N=C2NN=C(c3c(C)[nH]c4ccccc34)CS2)c1	inconclusive: 8.91 µM [inhibitor, partial curve, poor fit]
O=C(CCS(=O)(=O)c1ccccc1)Nc1ccccc1N1CCOCC1	inconclusive: 6.31 µM [inhibitor, single point]
CC1=C(c2ccccc2)[N+](=O)C2(CCCC2)N1[O-]	inconclusive: 29.1 µM [activator, single point]
CCCCn1c(N)c(N(CCOC)C(=O)COC(=O)c2ccccc2OCC)c(=O)[nH]c1=O	inconclusive: 6.31 µM [activator, full curve]
N#CC12C(=O)NC(=O)C1(C#N)C21CCCC1 (stereo unspecified)	inconclusive: 3.55 µM [activator, partial curve, poor fit]
CNc1ccccc1-n1ccc(-c2ccccc2)n1	inactive
Cc1nc2ncnn2c(C)c1CCC(=O)N1CCc2ccccc21	inactive
COc1ccccc1Nc1nc(N)nc(CSc2ncccn2)n1	inactive
CN1CCN(Cc2c(O)ccc3occ(C(=O)c4ccccc4)c23)CC1	inconclusive: 20.6 µM [inhibitor, partial curve, poor fit]
O=C(Nc1ncc(Cc2cccc(Cl)c2)s1)c1ccc([N+](=O)[O-])cc1	inactive
O=C(N/N=C/c1ccco1)c1cc(-c2cccc(Br)c2)nc2ccccc12	inconclusive: 20 µM [inhibitor, single point]
CN(C)c1ccc(NC(=S)c2ccccn2)cc1	active: 0.82 µM
Cc1ccc2cc(C#N)c(N3CCN(C(=O)c4cccs4)CC3)nc2c1	inconclusive: 0.316 µM [inhibitor, full curve, poor fit]
O=C(NCCc1ccccc1)c1nc2ncccn2n1	inconclusive: 20.6 µM [activator, partial curve, poor fit]
CC(=O)Nc1cccc(C(=O)OC(C(=O)c2ccc(C)c(C)c2)c2ccccc2)c1 (stereo unspecified)	inconclusive: 7.3 µM [inhibitor, partial curve, poor fit]
O=C1c2ccccc2C(=O)N1CCn1c(=O)oc2ccccc21	inactive
CC(C)(C)C(=O)Nc1ccc(S(=O)(=O)N2CCCC2)cc1	inactive
Cc1ccc(NC(=S)N/N=C/c2ccc(OCCC(C)C)cc2)c(C)c1	inactive
Cc1cccc(-n2c(O)c(C)c(=O)[nH]c2=S)c1	inactive
CC(C)CCn1nnnc1C(C(C)C)N1CCC(C(N)=O)CC1 (stereo unspecified)	inactive
COc1ccc(-c2nnc(SCC(=O)c3ccc(O)cc3O)o2)cc1	inactive
Cc1ccc(C(c2c(C)n(C)n(-c3ccccc3)c2=O)c2c(C)n(C)n(-c3ccccc3)c2=O)s1	inconclusive: 1 µM [inhibitor, full curve, poor fit]

Three entries already listed, arranged by molar mass, descending.
SMILES	Potency
COc1ccc(N2CCN(Cc3cc(=O)oc4cc(-c5ccccc5)c(O)cc34)CC2)cc1	inconclusive: 0.447 µM [inhibitor, full curve]
CN1CCN(Cc2c(O)ccc3occ(C(=O)c4ccccc4)c23)CC1	inconclusive: 20.6 µM [inhibitor, partial curve, poor fit]
Cc1nc2ncnn2c(C)c1CCC(=O)N1CCc2ccccc21	inactive
